Assay results from PubChem BioAssay AID651768 (National Center for Advancing Translational Sciences (NCATS), 2012).
The whole screen tested about 360,000 compounds, of which about 1,700 (0.47%) were called active. Inconclusive means that the source gave no clear call. Such entries were picked first, then a sample of the others. Calls come from the whole dose curve; as a rule, active = well fitted inhibition curve with a large enough effect; inconclusive = small, poorly fitted or top-dose-only effect; inactive = no such curve, though single readings can be large or run the other way. Where the call is inconclusive, the potency comes from a doubtful curve fit.

The chains behind the UniProt entries cited, without tags or fusion partners.
UniProt Q14191, whole entry, looked up: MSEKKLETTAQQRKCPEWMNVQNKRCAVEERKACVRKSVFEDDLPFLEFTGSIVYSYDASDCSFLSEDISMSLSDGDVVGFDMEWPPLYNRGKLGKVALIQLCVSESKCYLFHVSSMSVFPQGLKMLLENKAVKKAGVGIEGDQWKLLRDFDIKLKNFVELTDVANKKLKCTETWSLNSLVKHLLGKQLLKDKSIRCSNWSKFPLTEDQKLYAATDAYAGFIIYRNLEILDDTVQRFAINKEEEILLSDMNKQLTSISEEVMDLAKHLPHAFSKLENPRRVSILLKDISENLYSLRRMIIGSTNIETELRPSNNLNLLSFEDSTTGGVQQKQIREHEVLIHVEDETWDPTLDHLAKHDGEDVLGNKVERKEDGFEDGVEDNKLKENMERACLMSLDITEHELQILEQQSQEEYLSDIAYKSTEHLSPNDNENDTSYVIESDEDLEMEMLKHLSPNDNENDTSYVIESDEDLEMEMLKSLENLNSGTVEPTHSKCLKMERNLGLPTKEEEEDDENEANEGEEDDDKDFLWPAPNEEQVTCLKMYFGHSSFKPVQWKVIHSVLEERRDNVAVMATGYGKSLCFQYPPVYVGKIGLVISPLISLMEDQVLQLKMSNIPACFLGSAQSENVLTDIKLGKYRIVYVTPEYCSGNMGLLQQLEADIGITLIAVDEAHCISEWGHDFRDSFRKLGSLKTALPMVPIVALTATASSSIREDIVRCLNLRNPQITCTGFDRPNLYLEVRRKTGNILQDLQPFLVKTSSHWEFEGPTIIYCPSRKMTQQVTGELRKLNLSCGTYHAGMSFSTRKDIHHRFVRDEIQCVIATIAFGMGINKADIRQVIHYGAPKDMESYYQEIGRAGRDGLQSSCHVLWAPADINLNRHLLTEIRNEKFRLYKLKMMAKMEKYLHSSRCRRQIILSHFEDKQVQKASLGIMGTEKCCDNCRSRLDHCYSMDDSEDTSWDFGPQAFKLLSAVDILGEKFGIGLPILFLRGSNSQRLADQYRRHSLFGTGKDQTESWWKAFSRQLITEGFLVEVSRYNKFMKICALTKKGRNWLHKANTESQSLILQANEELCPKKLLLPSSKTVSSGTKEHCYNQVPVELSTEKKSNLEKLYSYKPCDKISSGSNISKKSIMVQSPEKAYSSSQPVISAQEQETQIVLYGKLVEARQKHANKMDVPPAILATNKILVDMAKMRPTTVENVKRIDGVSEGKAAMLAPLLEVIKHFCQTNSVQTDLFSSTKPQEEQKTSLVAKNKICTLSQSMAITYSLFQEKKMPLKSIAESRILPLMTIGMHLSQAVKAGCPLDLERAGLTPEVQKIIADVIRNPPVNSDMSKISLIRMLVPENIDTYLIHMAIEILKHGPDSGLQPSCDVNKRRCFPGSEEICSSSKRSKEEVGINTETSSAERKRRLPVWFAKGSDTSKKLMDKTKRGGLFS

These compounds were tested against Bifunctional 3'-5' exonuclease/ATP-dependent helicase WRN (Homo sapiens) (UniProt Q14191) (assay: qHTS for Inhibitors of WRN Helicase). Settings: WRN helicase unwinding, fluorescent forked duplex, kinetic; activity change, negative = inhibition: at 114 µM (top of the series) unless noted.
Method in brief: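 WRN at 20 nM final preincubated with compound 15 min at room temperature; reaction started with 100 nM fluorophore/quencher forked duplex oligonucleotide and 2 mM ATP final. Unwinding followed kinetically by red fluorescence (ex 525, em 598 nm).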
% is set by controls: 0 for no effect and ±100 for the full control effect; potency is the fitted concentration of half-maximal effect.
Note: nearly all actives have a fitted effect of over 55% in size.

Compound	Potency	activity change, negative = inhibition
CC(C)C1N=C2c3ccccc3N=C(SCC(=O)c3ccc(O)c(O)c3)N2C1=O (stereo not drawn)	active: 17.8 µM	
C=CCN(c1ccccc1OC)S(=O)(=O)c1cccc(C(=O)NCC(c2ccc(OC)cc2)N2CCCC2)c1 (stereo not drawn)		inactive: 0.759%
CC(C)c1ccccc1-n1c(SCc2cc(=O)oc3ccc4ccccc4c23)nnc1-c1cccnc1	inconclusive: 70.8 µM [inhibitor, single point]	
O=[N+]([O-])/C=C/c1cn(Cc2ccc(F)cc2)c2ccccc12	inconclusive: 50.1 µM [inhibitor, partial curve]	
O=C(O)c1[nH]c2ccccc2c1C(c1cc(Cl)cc([N+](=O)[O-])c1O)c1c(C(=O)O)[nH]c2ccccc12	active: 44.7 µM	
Cc1ccc(NC(=O)c2cccc3c2C(=O)N(C2CCCCC2)C3)cc1		inactive: -7.92%
CCOC(=O)N(O)c1ccc(C=Cc2ccccc2)cc1	inconclusive: 50.1 µM [inhibitor, partial curve]	
O=S(=O)(c1ccccc1)c1nc(-c2cccs2)oc1NCc1cccnc1	inconclusive: 50.1 µM [inhibitor, partial curve, poor fit]	
COc1ccc(C(=O)Nc2cccc(NC(=O)c3ccc(OC)c(OC)c3)n2)cc1OC		inactive: 11.1%
Cc1ccccc1-c1cc2nc(Oc3cccc(F)c3)n(C)c(=O)c2s1		inactive: -2.06% [at 57.1 µM]
Cc1ccc(NC(=O)C(C)OC(=O)c2ccc(NC(=O)CC#N)cc2)cc1S(=O)(=O)N1CCOCC1 (stereo not drawn)	inconclusive: 89.1 µM [inhibitor, single point]	
NC(=S)n1[nH]c(-c2ccc([N+](=O)[O-])cc2)c(N=Nc2ccc(Cl)cc2)c1=O	inconclusive: 35.5 µM [inhibitor, single point]	
CN(C)CCCNC(=O)N1c2ccccc2C=Cc2ccccc21		inactive: 5.28%
O=C(NCc1ccncc1)C12CC3CC(CC(Cl)(C3)C1)C2	inconclusive: 12.6 µM [inhibitor, partial curve]	
COc1ccccc1/C=N/NC(=O)c1ccccc1Cl	inconclusive: 39.8 µM [inhibitor, single point]	
C/C(=N/NS(=O)(=O)c1ccc(Br)cc1)c1c[nH]c2ccccc12	inconclusive: 35.5 µM [inhibitor, full curve, poor fit]	
O=C(Nc1ccccc1NC(=O)c1c(F)cccc1F)c1c(F)cccc1F	inconclusive: 89.1 µM [inhibitor, single point]	
COc1cc(/C=N/NC(=O)CN(Cc2ccco2)S(=O)(=O)c2ccccc2)ccc1O	inconclusive: 11.2 µM [inhibitor, partial curve]	

Shown as labelled records: 2 of the compounds above.
CCOC(=O)N(O)c1ccc(C=Cc2ccccc2)cc1
  Potency: inconclusive: 50.1 µM [inhibitor, partial curve]
O=S(=O)(c1ccccc1)c1nc(-c2cccs2)oc1NCc1cccnc1
  Potency: inconclusive: 50.1 µM [inhibitor, partial curve, poor fit]
